In PMC12848067:
No constants are given. Whether binding was seen depends on the method and setting. Binding seen in cells or lysates may run through a third protein. Some binding calls cover weakened binding; strength is not graded here. Sequences can lack the tags named with a protein.

Target: T1, Ring Finger Protein 182 (RNF182), endogenous in rat NRK-49F cells (rat (endogenous in NRK-49F)) (UniProt D3ZBM4)
T1 sequence: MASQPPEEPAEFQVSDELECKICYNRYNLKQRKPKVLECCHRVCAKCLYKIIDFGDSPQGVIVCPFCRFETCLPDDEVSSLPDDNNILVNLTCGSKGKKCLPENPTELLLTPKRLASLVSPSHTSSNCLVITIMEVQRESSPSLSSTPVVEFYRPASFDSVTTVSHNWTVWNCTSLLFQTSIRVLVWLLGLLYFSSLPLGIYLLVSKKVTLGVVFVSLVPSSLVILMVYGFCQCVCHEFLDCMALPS
Assay: co-IP; endogenous proteins; lysates (50 mM Tris-HCl pH 7.4, 150 mM NaCl, 1 mM EDTA, 1% NP-40 or Triton X-100) immunoprecipitated with anti-RNF182 or control IgG, Protein A/G magnetic beads, 4 °C, Western blot for RNF182 and MFN2; basal cells, and cells treated with vehicle, TGF-β1 or …

B1: Mitofusin 2 (MFN2), endogenous in rat NRK-49F cells (protein, UniProt Q8R500 1-757)
chain: MSLLFSRCNSIVTVKKDKRHMAEVNASPLKHFVTAKKKINGIFEQLGAYIQESAGFLEDTHRNTELDPVTTEEQVLDVKGYLSKVRGISEVLARRHMKVAFFGRTSNGKSTVINAMLWDKVLPSGIGHTTNCFLRVGGTDGHEAFLLTEGSEEKKSVKTVNQLAHALHQDEQLHAGSLVSVMWPNSKCPLLKDGLVLMDSPGIDVTTELDSWIDKFCLDADVFVLVANSESTLMQTEKQFFHKVSERLSRPNIFILNNRWDASASEPEYMEEVRRQHMERCTSFLVDELGVVDRAQAGDRIFFVSAKEVLSARVQKAQGMPEGGGALAEGFQVRMFEFQNFERRFEECISQSAVKTKFEQHTVRAKQIAEAVRLIMDSLHIAAQEQRVYCLEMREERQDRLRFIDKQLELLAQDYKLRIKQMTEEVERQVSTAMAEEIRRLSVLVDEYQMDFHPSPVVLKVYKNELHRHIEEGLGRNMSDRCSTAIASSLQTMQQDMIDGLKPLLPVSVRNQIDMLVPRQCFSLSYDLNCDKLCADFQEDIEFHFSLGWTMLVNRFLGPKNSRRALLGYNDQVQRPLPLTPANPSMPPLPQGSLTQEELMVSMVTGLASLTSRTSMGILVVGGVVWKAVGWRLIALSFGLYGLLYVYERLTWTTRAKERAFKRQFVEYASEKLQLIISYTGSNCSHQVQQELSGTFAHLCQQVDITRDNLEQEIAAMNKKVEALDSLQSKAKLLRNKAGWLDSELNMFIHQYLQPSR
- binding: binds
